Experimental findings from publication PMC9263130 are described below.

Protein sequences, listed by entry. Tags and fused reporters are not part of them. Lines headed by an entry give the natural chain unless they say otherwise; changes in a name come on top.
UniProt O60674: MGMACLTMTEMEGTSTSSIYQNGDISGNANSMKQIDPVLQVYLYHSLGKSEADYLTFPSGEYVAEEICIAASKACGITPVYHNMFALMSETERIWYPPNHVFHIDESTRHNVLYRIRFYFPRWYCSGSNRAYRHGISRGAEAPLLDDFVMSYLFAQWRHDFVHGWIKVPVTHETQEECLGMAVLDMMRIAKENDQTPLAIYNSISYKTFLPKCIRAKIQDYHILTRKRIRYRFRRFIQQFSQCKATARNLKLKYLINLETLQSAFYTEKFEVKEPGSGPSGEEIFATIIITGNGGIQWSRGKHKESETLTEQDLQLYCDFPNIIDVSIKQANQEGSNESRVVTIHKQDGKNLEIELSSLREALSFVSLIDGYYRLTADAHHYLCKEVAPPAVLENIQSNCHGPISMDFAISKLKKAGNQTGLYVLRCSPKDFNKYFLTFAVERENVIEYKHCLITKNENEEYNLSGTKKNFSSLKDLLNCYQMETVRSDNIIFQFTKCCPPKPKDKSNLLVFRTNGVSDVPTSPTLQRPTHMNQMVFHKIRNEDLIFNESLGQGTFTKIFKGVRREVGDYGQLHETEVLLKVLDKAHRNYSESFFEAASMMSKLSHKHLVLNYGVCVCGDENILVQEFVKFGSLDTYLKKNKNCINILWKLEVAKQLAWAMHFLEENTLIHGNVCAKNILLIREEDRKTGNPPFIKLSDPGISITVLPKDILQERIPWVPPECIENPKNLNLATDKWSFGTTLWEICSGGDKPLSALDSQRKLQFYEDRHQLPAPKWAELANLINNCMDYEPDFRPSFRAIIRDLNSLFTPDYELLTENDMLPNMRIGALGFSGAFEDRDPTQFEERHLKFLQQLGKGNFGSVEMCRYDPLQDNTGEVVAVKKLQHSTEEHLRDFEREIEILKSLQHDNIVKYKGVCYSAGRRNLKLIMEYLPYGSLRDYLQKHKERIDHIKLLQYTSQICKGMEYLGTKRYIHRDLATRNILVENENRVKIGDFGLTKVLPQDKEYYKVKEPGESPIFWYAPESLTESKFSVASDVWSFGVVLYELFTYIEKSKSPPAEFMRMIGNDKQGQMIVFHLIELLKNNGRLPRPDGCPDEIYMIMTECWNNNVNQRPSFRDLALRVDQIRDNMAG

Results are given in words; binding and its absence hold for the method and conditions named. Binding seen in cells or lysates may run through a third protein. Binding calls can cover weak binding; strength is not graded here.

In this experiment the target is JAK2 (endogenous in HEL cells, which harbour the JAK2V617F mutation) (human (endogenous in HEL)) (UniProt O60674). Briefly: co-IP; HEL cells with 3 × Flag-CHST15 wild type or mutant; RIPA lysate, precleared with Protein A/G PLUS-agarose and control IgG; anti-JAK2 or anti-Flag-CHST15 antibody overnight at 4 °C; immunoblot.

For “3 × Flag-tagged mutant CHST15 (c.1367delG, p.Arg456fs) (from UniProt Q7LFX5-2)”, the binding entry is “binds”.
